We go through one compound from publication PMC7431030 (Nature, 2020).

The subject of this experiment is SARS-CoV-2. In kind it is cell-based.

SMILES strings stand for the structures.

Turning to `CN1CCC[C@@H]1CCO[C@](C)(c1ccccc1)c1ccc(Cl)cc1` [clemastine], the “antiviral activity / viral infectivity (in words)” value is “antiviral activity”.
